Structures can show the parent of a compound that is named as a salt.
Test: Assay interference of tetrazolium-formazan-NAD(P)H system
Settings: absorbance at 450 nm (reference 620 nm); for assay interference by antioxidant BME: BME dose response in the absence of NADH; for assay interference by Tween 20: up to 0.2% Tween 20; for assay interference by Tween 20 / assay interference by SDS: absence or presence of 100 μM NADH; for assay interference by SDS: up to 1% SDS

| SMILES | assay interference by antioxidant BME | assay interference by Tween 20 | assay interference by SDS |
| --- | --- | --- | --- |
| COc1cc([N+](=O)[O-])ccc1-[n+]1nc(-c2ccc(S(=O)(=O)[O-])cc2S(=O)(=O)[O-])nn1-c1ccc([N+](=O)[O-])cc1.[Na+] [WST-8, 2-(3-(2-methoxy-4-nitrophenyl)-2-(4-nitrophenyl)-2H-tetrazolium)benzene disulfonate sodium salt, reference compound] | strong dose-dependent false positive signals | no interference | no interference |
| COc1cc([N+](=O)[O-])ccc1-[n+]1nc(-c2ccccc2S(=O)(=O)O)nn1-c1ccc([N+](=O)[O-])cc1 [EZMTT, 2-(4-nitrophenyl)-3-(2-methoxy-4-nitrophenyl)-5 (2-sulfonic phenyl)-2H-tetrazolium monosodium salt] | essentially no signal changes | no interference | no interference |
